{
  "source": "patent EP2505189B1",
  "about": "“Stabilizing alkylglycoside compositions and method thereof” (Aegis Therapeutics, LLC, priority 2006, dated 2007)",
  "key": {"[1]": {"experiment": "Fibril formation of stored powdered DAPTA samples by electron microscopy", "format": "physicochemical", "design": "key: +++++ means that fibrils were most readily detected; + means fibrils were rarely detected", "settings": "powder stored at -20 °C, dissolved at 10mgs/ml"}, "[2]": {"experiment": "DAPTA fibril formation and aggregation in solution (EM, dye binding, CD, FTIR)", "format": "physicochemical"}, "HIV": {"system": "HIV", "experiment": "Inhibition of HIV infectivity in vitro after storage of the peptide solution", "format": "cell-based"}, "[3]": {"system": "painful peripheral neuropathy", "settings": "6mg/day for 12 weeks; cited from earlier work"}, "[4]": {"system": "people with mild to severe cognitive impairment", "settings": "2mg three times daily intranasally; at least four months of treatment; cited from earlier work"}, "[5]": {"system": "HIV-related peripheral neuropathy", "settings": "subcutaneously, initial dose of 10 mg daily; nine individuals; cited from earlier work"}},
  "note": "Part of at least one peptide drawing is inferred or uncertain, most often the ends.",
  "data": [
    {"smiles": "C[C@@H](N)C(=O)N[C@@H](CO)C(=O)N[C@H](C(=O)N[C@H](C(=O)N[C@H](C(=O)N[C@@H](CC(N)=O)C(=O)N[C@@H](Cc1ccc(O)cc1)C(=O)N[C@H](C(N)=O)[C@@H](C)O)[C@@H](C)O)[C@@H](C)O)[C@@H](C)O", "note": "[Lot #: 20569]", "values": [
      {"measurement": "tendency to form fibrils (fibrils detected by Electron Microscopy, 100 fields examined)", "setting": "[1]", "result": "+++++"}
    ]},
    {"smiles": "C[C@@H](N)C(=O)N[C@@H](CO)C(=O)N[C@H](C(=O)N[C@H](C(=O)N[C@H](C(=O)N[C@@H](CC(N)=O)C(=O)N[C@@H](Cc1ccc(O)cc1)C(=O)N[C@H](C(N)=O)[C@@H](C)O)[C@@H](C)O)[C@@H](C)O)[C@@H](C)O", "note": "[Lot #101801]", "values": [
      {"measurement": "tendency to form fibrils (fibrils detected by Electron Microscopy, 100 fields examined)", "setting": "[1]", "result": "+"}
    ]},
    {"smiles": "C[C@@H](N)C(=O)N[C@@H](CO)C(=O)N[C@H](C(=O)N[C@H](C(=O)N[C@H](C(=O)N[C@@H](CC(N)=O)C(=O)N[C@@H](Cc1ccc(O)cc1)C(=O)N[C@H](C(N)=O)[C@@H](C)O)[C@@H](C)O)[C@@H](C)O)[C@@H](C)O", "note": "[lot #171101]", "values": [
      {"measurement": "tendency to form fibrils (fibrils detected by Electron Microscopy, 100 fields examined)", "setting": "[1]", "result": "+"}
    ]},
    {"smiles": "C[C@@H](N)C(=O)N[C@@H](CO)C(=O)N[C@H](C(=O)N[C@H](C(=O)N[C@H](C(=O)N[C@@H](CC(N)=O)C(=O)N[C@@H](Cc1ccc(O)cc1)C(=O)N[C@H](C(N)=O)[C@@H](C)O)[C@@H](C)O)[C@@H](C)O)[C@@H](C)O", "note": "[DAPTA, D-ala^1-Peptide T-amide]", "values": [
      {"measurement": "dissociation of aggregated peptide on warming", "setting": "[2]; 5 mg/mL in 0.45% NaCl, warmed to 37°C for about 17-24 hours", "result": "reversibly dissociate"},
      {"measurement": "preformed aggregates, as measured by EM", "setting": "[2]; aggregates formed in distilled water, addition of TFE to 80%", "result": "disrupted"},
      {"measurement": "activity as measured by HIV uptake inhibition in vitro", "setting": "HIV; 0.1 mM solutions in water at 4°C, by about 6 weeks", "result": "substantial loss of activity"},
      {"measurement": "activity (inhibition of HIV infectivity, in vitro) after storage", "setting": "HIV; stored in solution with TFE between 60% and 100%, compared to storage in water", "result": "retained more activity"},
      {"measurement": "difference to placebo in the treatment of painful peripheral neuropathy", "setting": "[3]", "result": "no statistically significant differences"},
      {"measurement": "neuropsychological performance versus placebo", "setting": "[4]", "result": "no difference in neuropsychological performance between the two arms"},
      {"measurement": "resolution of lower limb pain", "setting": "[5]", "result": "all experienced either complete or subjectively significant resolution of lower limb pain"}
    ]}
  ]
}
